Assay results as given in PubChem BioAssay (NCATS).
Some of the results follow. Shown are side measurements of this screen, not its main read-out; they come without a call. The list favours compounds with an active or inconclusive main result. Words in brackets tell the shape of the fitted curve; partial curves, single points and poor fits give uncertain potencies.

Experiment: S16 Schwann cell PMP22 intronic element beta-lactamase assay (AID 624044)
Conditions: S16 rat Schwann cells, PMP22 element beta-lactamase FRET, 24 h
In short: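 Rat S16 Schwann cells with beta-Lac driven by a PMP22 intronic element, compound-treated 24 h at 37 °C. LiveBLAzer FRET B/G read: 460 nm normalized to potassium clavulanate vs DMSO; 535 nm FRET as viability; concentration-effect curves classified.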

[1] = measured here: 460 nm blue channel
[2] = measured here: 530 nm viability channel

Row | Compound | AC50 [1] | AC50 [2]
1 | NCC[C@H](O)C(=O)N[C@@H]1C[C@H](N)[C@@H](O[C@H]2O[C@H](CN)CC[C@H]2N)[C@H](O)[C@H]1O[C@H]1O[C@H](CO)[C@@H](O)[C@H](N)[C@H]1O | 12.6 µM [rising, single point] | 12.6 µM [rising, single point]
2 | CC(=O)Nc1ccc(S(=O)(=O)Nc2ccc([N+](=O)[O-])cc2)cc1 | 25.1 µM [falling, single point] | 28.2 µM [falling, single point]
3 | CCOC(=O)c1c[nH]c2cc(OCC(C)C)c(OCC(C)C)cc2c1=O | 1.26 µM [falling, partial curve, poor fit] | 1.41 µM [falling, single point]
4 | CCCCC(=O)N(Cc1ccc(-c2ccccc2-c2nn[nH]n2)cc1)C(C(=O)O)C(C)C (configuration not stated) | 3.16 µM [falling, full curve, poor fit] | 2.51 µM [falling, partial curve]
5 | CNCC(=O)NC(CCCN=C(N)N)C(=O)NC(C(=O)NC(Cc1ccc(O)cc1)C(=O)NC(C(=O)NC(Cc1cnc[nH]1)C(=O)N1CCCC1C(=O)NC(C)C(=O)O)C(C)C)C(C)C (configuration not stated) | 7.94 µM [falling, single point] | 2.24 µM [falling, full curve, poor fit]
6 | CC(C)C[C@@H](NC(=O)[C@@H](Cc1ccccc1)NC(=O)c1cnccn1)B(O)O | 0.0199 µM [falling, full curve] | 0.0224 µM [rising, full curve]
7 | NC(=O)[C@H]1O[C@@H](O)[C@H](O)[C@@H](O)[C@@H]1O | 14.1 µM [falling, single point] | 0.562 µM [falling, full curve]
8 | CC(C)NC[C@H]1CCc2cc(CO)c([N+](=O)[O-])cc2N1 | 10.7 µM [falling, single point] | 11.2 µM [falling, single point]
9 | O=P(O)(O)CP(=O)(O)O | 25.1 µM [falling, single point] | 28.2 µM [falling, single point]
10 | CC[C@H](C)[C@H]1O[C@]2(CC[C@@H]1C)C[C@@H]1C[C@@H](C/C=C(\C)[C@H](O[C@@H]3C[C@H](OC)[C@H](O[C@@H]4C[C@H](OC)[C@@H](O)[C@H](C)O4)[C@H](C)O3)[C@@H](C)/C=C/C=C3\CO[C@@H]4[C@H](O)C(C)=C[C@@H](C(=O)O1)[C@]34O)O2 | 19.9 µM [falling, partial curve] | 31.6 µM [falling, single point]
11 | O=C(O)CCC(=O)Nc1ccc(S(=O)(=O)Nc2nccs2)cc1 | 10.7 µM [falling, single point] | 12.6 µM [falling, single point]
12 | COc1ccc([C@@H]2CC(=O)c3c(O)cc(O[C@H]4O[C@@H](CO[C@H]5O[C@@H](C)[C@@H](O)[C@@H](O)[C@@H]5O)[C@@H](O)[C@@H](O)[C@@H]4O)cc3O2)cc1O | 0.00477 µM [falling, full curve, poor fit] | 0.00631 µM [falling, full curve, poor fit]
13 | O=C(Nc1cccc(C(F)(F)F)c1)c1cc(Br)cc(Br)c1O | 8.91 µM [falling, partial curve, poor fit] | 11.2 µM [falling, partial curve]
14 | CCCCC[C@H](O)/C=C/[C@@H]1[C@H]2C/C(=C/CCCC(=O)O)O[C@H]2C[C@H]1O | 0.00562 µM [falling, full curve, poor fit] | 3.55 µM [falling, full curve, poor fit]
15 | CCCC(=O)OC[C@@H](OC(=O)CCC)[C@@H](OC(=O)CCC)[C@H](Cn1c2nc(=O)[nH]c(=O)c-2nc2cc(C)c(C)cc21)OC(=O)CCC | 25.1 µM [falling, single point] | 15.8 µM [rising, partial curve]
16 | COc1nc(N)nc2c1ncn2[C@@H]1O[C@H](CO)[C@@H](O)[C@@H]1O | 3.98 µM [falling, partial curve, poor fit] | 12.6 µM [falling, single point]

By substructure, those above containing a nitro group on carbon (2)
Row | Compound | AC50 [1] | AC50 [2]
2 | CC(=O)Nc1ccc(S(=O)(=O)Nc2ccc([N+](=O)[O-])cc2)cc1 | 25.1 µM [falling, single point] | 28.2 µM [falling, single point]
8 | CC(C)NC[C@H]1CCc2cc(CO)c([N+](=O)[O-])cc2N1 | 10.7 µM [falling, single point] | 11.2 µM [falling, single point]

Continuation:

Row | Compound | AC50 [1] | AC50 [2]
17 | O=C1C(=O)c2ncccc2-c2cccnc21 | 22.4 µM [rising, partial curve, poor fit] | 25.1 µM [rising, partial curve]
18 | CC1CC(O)CC(C)(C)C1 (configuration not stated) | 1.58 µM [falling, full curve] | 1.41 µM [falling, full curve]
19 | CCC(C)C(=O)OC1CCC=C2C=CC(C)C(CCC3CC(O)CC(=O)O3)[C@@H]21 (some centres not stated) | 0.562 µM [falling, full curve, poor fit] | 0.355 µM [falling, full curve, poor fit]
20 | Cc1cccn2c(=O)c(-c3nnn[nH]3)cnc12 | 5.62 µM [falling, full curve, poor fit] | 1.26 µM [falling, full curve, poor fit]
21 | CC(C)Cc1ccc([C@@H](C)C(=O)NS(C)(=O)=O)cc1 | 0.631 µM [falling, full curve, poor fit] | 1.12 µM [falling, full curve]
22 | COc1ccc(CN(CCN(C)C)c2ncccn2)cc1 | 25.1 µM [falling, single point] | 0.00891 µM [falling, full curve, poor fit]
23 | CCN(CC)CCNC(=O)c1cc(S(C)(=O)=O)ccc1OC | 9.51 µM [falling, single point] | 0.501 µM [falling, full curve]
24 | O=c1[nH]c(=O)c2[nH]c(=O)[nH]c2[nH]1 | 14.1 µM [falling, single point] | 2.24 µM [falling, full curve]
25 | COc1cc(NCCCC(C)N)c2ncccc2c1 (configuration not stated) | 1.58 µM [falling, full curve, poor fit] | 2.24 µM [falling, full curve]
26 | COC(C(=O)C(O)C(C)O)C1Cc2cc3cc(OC4CC(OC5CC(O)C(O)C(C)O5)C(O)C(C)O4)c(C)c(O)c3c(O)c2C(=O)C1OC1CC(OC2CC(OC3CC(C)(O)C(O)C(C)O3)C(O)C(C)O2)C(O)C(C)O1 (configuration not stated) | 0.501 µM [falling, full curve] | 17.8 µM [rising, partial curve]
27 | Cc1cccc(C)c1NC(=O)C1CCCCN1C (configuration not stated) | 14.1 µM [falling, single point] | 12.6 µM [falling, single point]
28 | CC1CCC(C(C)C)C(=O)C1 (configuration not stated) | 25.1 µM [falling, single point] | 25.1 µM [falling, single point]
29 | CO[C@H](C(=O)[C@@H](O)[C@@H](C)O)C1Cc2cc3cc(O[C@H]4C[C@@H](O[C@H]5C[C@@H](O)[C@H](O)[C@@H](C)O5)[C@@H](O)[C@@H](C)O4)c(C)c(O)c3c(O)c2C(=O)[C@H]1O[C@H]1C[C@@H](O[C@H]2C[C@@H](O[C@H]3C[C@](C)(O)[C@H](O)[C@@H](C)O3)[C@H](O)[C@@H](C)O2)[C@H](O)[C@@H](C)O1 (some centres not stated) | 0.446 µM [falling, full curve] | 17.8 µM [rising, partial curve]
30 | CC(C)C[C@@H](NC(=O)[C@H](Cc1ccccc1)NC(=O)c1cnccn1)B(O)O | 0.00794 µM [falling, full curve] | 0.0112 µM [rising, full curve]
31 | NC(=O)NS(=O)(=O)c1ccc(N)cc1 | 0.999 µM [falling, full curve, poor fit] | 1.78 µM [falling, full curve, poor fit]
